Test results reported in PMC12643531.
These are yes or no findings as the source states them, for the method shown. Binding seen in cells or lysates may run through a third protein. A yes stands for co-enrichment or nearness to the bait. Other partners may have been found. Tags and fused reporters may be left off the sequences shown.

Amino acid sequences for entries named in this document (tags omitted).
UniProt Q8W234: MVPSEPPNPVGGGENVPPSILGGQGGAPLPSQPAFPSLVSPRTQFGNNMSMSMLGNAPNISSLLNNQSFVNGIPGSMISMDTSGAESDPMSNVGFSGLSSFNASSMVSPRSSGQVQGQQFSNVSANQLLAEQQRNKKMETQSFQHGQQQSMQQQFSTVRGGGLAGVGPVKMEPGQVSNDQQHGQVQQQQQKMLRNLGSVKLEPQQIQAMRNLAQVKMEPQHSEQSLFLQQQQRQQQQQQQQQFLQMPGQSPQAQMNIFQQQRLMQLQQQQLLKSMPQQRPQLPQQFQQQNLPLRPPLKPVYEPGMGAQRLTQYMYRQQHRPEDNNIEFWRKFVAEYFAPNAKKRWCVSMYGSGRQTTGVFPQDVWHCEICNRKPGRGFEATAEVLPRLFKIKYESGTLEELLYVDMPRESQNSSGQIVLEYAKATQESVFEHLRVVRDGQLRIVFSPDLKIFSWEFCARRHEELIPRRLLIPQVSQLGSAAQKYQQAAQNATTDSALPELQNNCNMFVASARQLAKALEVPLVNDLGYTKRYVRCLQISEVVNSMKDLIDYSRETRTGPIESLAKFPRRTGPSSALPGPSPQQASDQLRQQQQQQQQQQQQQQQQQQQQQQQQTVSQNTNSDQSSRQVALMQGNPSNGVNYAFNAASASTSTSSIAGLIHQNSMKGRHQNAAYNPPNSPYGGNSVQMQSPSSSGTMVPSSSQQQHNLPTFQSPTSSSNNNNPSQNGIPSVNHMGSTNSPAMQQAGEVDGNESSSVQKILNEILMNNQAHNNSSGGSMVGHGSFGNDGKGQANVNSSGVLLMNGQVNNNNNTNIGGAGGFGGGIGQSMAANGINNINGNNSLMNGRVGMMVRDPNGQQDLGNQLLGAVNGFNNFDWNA
UniProt P35631: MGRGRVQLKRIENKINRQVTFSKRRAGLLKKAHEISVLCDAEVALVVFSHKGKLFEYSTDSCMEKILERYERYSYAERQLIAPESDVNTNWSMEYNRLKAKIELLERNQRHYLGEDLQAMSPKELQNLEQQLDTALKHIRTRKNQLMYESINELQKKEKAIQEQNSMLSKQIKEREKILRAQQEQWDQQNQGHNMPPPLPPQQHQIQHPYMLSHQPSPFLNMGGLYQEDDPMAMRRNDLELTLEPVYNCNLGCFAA
UniProt Q9LE42: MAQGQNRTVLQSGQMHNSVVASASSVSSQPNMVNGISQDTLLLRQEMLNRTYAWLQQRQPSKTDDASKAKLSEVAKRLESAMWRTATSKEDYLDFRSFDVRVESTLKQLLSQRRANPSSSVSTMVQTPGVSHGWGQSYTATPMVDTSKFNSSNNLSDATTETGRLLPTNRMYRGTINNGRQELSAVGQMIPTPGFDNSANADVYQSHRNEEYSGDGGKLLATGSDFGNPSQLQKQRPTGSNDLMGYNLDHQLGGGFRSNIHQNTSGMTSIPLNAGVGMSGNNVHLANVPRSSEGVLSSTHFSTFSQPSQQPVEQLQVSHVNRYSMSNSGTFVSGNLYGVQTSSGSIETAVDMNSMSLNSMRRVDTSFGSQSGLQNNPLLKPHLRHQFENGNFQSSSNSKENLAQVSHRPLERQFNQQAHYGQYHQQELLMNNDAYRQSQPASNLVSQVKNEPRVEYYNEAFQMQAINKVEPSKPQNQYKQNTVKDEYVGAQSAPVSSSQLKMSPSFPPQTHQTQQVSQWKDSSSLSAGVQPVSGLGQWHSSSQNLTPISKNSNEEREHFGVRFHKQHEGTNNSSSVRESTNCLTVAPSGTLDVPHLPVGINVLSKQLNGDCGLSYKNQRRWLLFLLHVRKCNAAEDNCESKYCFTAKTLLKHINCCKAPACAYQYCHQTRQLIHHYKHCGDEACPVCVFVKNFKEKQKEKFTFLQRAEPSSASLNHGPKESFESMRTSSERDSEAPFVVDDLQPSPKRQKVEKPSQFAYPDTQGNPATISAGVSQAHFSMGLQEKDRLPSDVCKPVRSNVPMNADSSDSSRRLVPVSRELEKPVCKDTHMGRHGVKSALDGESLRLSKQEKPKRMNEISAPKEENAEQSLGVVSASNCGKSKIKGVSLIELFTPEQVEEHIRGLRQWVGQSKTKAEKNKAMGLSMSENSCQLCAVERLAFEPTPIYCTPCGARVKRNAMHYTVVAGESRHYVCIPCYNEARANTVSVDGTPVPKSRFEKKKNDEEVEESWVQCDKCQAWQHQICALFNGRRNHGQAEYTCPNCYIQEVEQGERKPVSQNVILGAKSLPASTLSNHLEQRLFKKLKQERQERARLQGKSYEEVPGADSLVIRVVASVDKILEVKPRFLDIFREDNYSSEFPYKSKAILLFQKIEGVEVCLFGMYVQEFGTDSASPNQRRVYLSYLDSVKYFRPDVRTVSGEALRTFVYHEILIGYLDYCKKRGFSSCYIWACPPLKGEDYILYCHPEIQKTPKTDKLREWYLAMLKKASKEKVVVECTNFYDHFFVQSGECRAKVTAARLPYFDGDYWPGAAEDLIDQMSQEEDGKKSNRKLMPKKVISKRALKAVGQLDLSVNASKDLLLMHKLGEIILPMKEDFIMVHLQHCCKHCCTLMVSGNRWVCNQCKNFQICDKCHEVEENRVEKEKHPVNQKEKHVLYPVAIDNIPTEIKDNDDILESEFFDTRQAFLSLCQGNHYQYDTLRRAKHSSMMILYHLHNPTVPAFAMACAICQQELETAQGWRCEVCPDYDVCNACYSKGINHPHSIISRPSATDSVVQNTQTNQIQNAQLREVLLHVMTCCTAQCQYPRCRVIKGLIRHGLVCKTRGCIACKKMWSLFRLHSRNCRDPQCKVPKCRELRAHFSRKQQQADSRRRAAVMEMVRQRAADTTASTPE

T1: LEUNIG_HOMOLOG (LUH)-GFP (Arabidopsis thaliana) (UniProt O48847)
T1 sequence: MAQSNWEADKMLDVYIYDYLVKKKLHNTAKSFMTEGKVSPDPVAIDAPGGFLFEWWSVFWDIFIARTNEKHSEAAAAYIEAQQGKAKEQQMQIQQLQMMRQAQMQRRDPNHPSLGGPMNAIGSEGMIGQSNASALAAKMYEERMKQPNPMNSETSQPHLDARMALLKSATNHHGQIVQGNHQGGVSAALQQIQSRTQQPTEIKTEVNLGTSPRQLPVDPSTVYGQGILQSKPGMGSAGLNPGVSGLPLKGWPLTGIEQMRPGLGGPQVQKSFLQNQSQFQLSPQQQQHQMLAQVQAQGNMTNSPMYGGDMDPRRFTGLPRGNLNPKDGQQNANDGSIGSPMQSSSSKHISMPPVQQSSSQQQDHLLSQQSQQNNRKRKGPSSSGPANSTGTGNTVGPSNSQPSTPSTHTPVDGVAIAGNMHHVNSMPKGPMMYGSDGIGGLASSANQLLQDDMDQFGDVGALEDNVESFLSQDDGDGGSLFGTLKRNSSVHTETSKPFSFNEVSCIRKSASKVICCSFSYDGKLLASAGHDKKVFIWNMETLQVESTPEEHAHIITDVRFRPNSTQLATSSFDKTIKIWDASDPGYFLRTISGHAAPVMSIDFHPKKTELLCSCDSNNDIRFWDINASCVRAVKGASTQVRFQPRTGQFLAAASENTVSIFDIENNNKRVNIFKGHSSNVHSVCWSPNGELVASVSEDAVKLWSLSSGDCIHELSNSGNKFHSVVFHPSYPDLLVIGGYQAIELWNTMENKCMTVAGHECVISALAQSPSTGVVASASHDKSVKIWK

B1: LEUNIG (LUG) (protein, UniProt Q9FUY2 1-931)
chain: MSQTNWEADKMLDVYIHDYLVKRDLKATAQAFQAEGKVSSDPVAIDAPGGFLFEWWSVFWDIFIARTNEKHSEVAASYIETQMIKAREQQLQQSQHPQVSQQQQQQQQQQIQMQQLLLQRAQQQQQQQQQQHHHHQQQQQQQQQQQQQQQQQQQQHQNQPPSQQQQQQSTPQHQQQPTPQQQPQRRDGSHLANGSANGLVGNNSEPVMRQNPGSGSSLASKAYEERVKMPTQRESLDEAAMKRFGDNVGQLLDPSHASILKSAAASGQPAGQVLHSTSGGMSPQVQTRNQQLPGSAVDIKSEINPVLTPRTAVPEGSLIGIPGSNQGSNNLTLKGWPLTGFDQLRSGLLQQQKPFMQSQSFHQLNMLTPQHQQQLMLAQQNLNSQSVSEENRRLKMLLNNRSMTLGKDGLGSSVGDVLPNVGSSLQPGGSLLPRGDTDMLLKLKMALLQQQQQNQQQGGGNPPQPQPQPQPLNQLALTNPQPQSSNHSIHQQEKLGGGGSITMDGSISNSFRGNEQVLKNQSGRKRKQPVSSSGPANSSGTANTAGPSPSSAPSTPSTHTPGDVISMPNLPHSGGSSKSMMMFGTEGTGTLTSPSNQLADMDRFVEDGSLDDNVESFLSQEDGDQRDAVTRCMDVSKGFTFTEVNSVRASTTKVTCCHFSSDGKMLASAGHDKKAVLWYTDTMKPKTTLEEHTAMITDIRFSPSQLRLATSSFDKTVRVWDADNKGYSLRTFMGHSSMVTSLDFHPIKDDLICSCDNDNEIRYWSINNGSCTRVYKGGSTQIRFQPRVGKYLAASSANLVNVLDVETQAIRHSLQGHANPINSVCWDPSGDFLASVSEDMVKVWTLGTGSEGECVHELSCNGNKFQSCVFHPAYPSLLVIGCYQSLELWNMSENKTMTLPAHEGLITSLAVSTATGLVASASHDKLVKLWK
B2: AINTEGUMENTA-like 6 (AIL6) (protein, UniProt Q52QU2 1-581)
chain: MMAPMTNWLTFSLSPMEMLRSSDQSQFVSYDASSAASSSPYLLDNFYGWSNQKPQEFFKEEAQLAAAASMADSTILTTFVDPQSHHSQNHIPKLEDFLGDSSSIVRYSDNSQTDTQDSSLTQIYDPRHHHNQTGFYSDHHDFKTMAGFQSAFSTNSGSEVDDSASIGRTHLAGDYLGHVVESSGPELGFHGGSTGALSLGVNVNNNTNHRNDNDNHYRGNNNGERINNNNNNDNEKTDSEKEKAVVAVETSDCSNKKIADTFGQRTSIYRGVTRHRWTGRYEAHLWDNSCRREGQARKGRQGGYDKEDKAARAYDLAALKYWNATATTNFPITNYSKEVEEMKHMTKQEFIASLRRKSSGFSRGASIYRGVTRHHQQGRWQARIGRVAGNKDLYLGTFATEEEAAEAYDIAAIKFRGINAVTNFEMNRYDVEAIMKSALPIGGAAKRLKLSLEAAASSEQKPILGHHQLHHFQQQQQQQQLQLQSSPNHSSINFALCPNSAVQSQQIIPCGIPFEAAALYHHHQQQQQHQQQQQQQNFFQHFPANAASDSTGSNNNSNVQGTMGLMAPNPAEFFLWPNQSY
B3: GRF1-… FACTOR 1 (GIF1) (protein, UniProt Q8L8A5 1-210)
chain: MQQHLMQMQPMMAGYYPSNVTSDHIQQYLDENKSLILKIVESQNSGKLSECAENQARLQRNLMYLAAIADSQPQPPSVHSQYGSAGGGMIQGEGGSHYLQQQQATQQQQMTQQSLMAARSSMLYAQQQQQQQPYATLQHQQLHHSQLGMSSSSGGGGSSGLHILQGEAGGFHDFGRGKPEMGSGGGGEGRGGSSGDGGETLYLKSSDDGN
B4: KNOTTED-LIKE FROM ARABIDOPSIS THALIANA (KNAT1) (protein, UniProt P46639 1-398)
chain: MEEYQHDNSTTPQRVSFLYSPISSSNKNDNTSDTNNNNNNNNSSNYGPGYNNTNNNNHHHQHMLFPHMSSLLPQTTENCFRSDHDQPNNNNNPSVKSEASSSRINHYSMLMRAIHNTQEANNNNNDNVSDVEAMKAKIIAHPHYSTLLQAYLDCQKIGAPPDVVDRITAARQDFEARQQRSTPSVSASSRDPELDQFMEAYCDMLVKYREELTRPIQEAMEFIRRIESQLSMLCQSPIHILNNPDGKSDNMGSSDEEQENNSGGETELPEIDPRAEDRELKNHLLKKYSGYLSSLKQELSKKKKKGKLPKEARQKLLTWWELHYKWPYPSESEKVALAESTGLDQKQINNWFINQRKRHWKPSEDMQFMVMDGLQHPHHAALYMDGHYMGDGPYRLGP
B5: AINTEGUMENTA (ANT) (protein, UniProt Q38914 1-555)
chain: MKSFCDNDDNNHSNTTNLLGFSLSSNMMKMGGRGGREAIYSSSTSSAATSSSSVPPQLVVGDNTSNFGVCYGSNPNGGIYSHMSVMPLRSDGSLCLMEALNRSSHSNHHQDSSPKVEDFFGTHHNNTSHKEAMDLSLDSLFYNTTHEPNTTTNFQEFFSFPQTRNHEEETRNYGNDPSLTHGGSFNVGVYGEFQQSLSLSMSPGSQSSCITGSHHHQQNQNQNHQSQNHQQISEALVETSVGFETTTMAAAKKKRGQEDVVVVGQKQIVHRKSIDTFGQRTSQYRGVTRHRWTGRYEAHLWDNSFKKEGHSRKGRQVYLGGYDMEEKAARAYDLAALKYWGPSTHTNFSAENYQKEIEDMKNMTRQEYVAHLRRKSSGFSRGASIYRGVTRHHQHGRWQARIGRVAGNKDLYLGTFGTQEEAAEAYDVAAIKFRGTNAVTNFDITRYDVDRIMSSNTLLSGELARRNNNSIVVRNTEDQTALNAVVEGGSNKEVSTPERLLSFPAIFALPQVNQKMFGSNMGGNMSPWTSNPNAELKTVALTLPQMPVFAAWADS

What follows are molecules tested against T1, LEUNIG_HOMOLOG (LUH)-GFP (Arabidopsis thaliana) (assay: affinity purification with mass spectrometry; LUH-GFP precipitated with anti-GFP micro beads (4°C, 1 h) from nuclear protein extracts of FIS inflorescences at 0, 2, 4 and 8 DAI; LC-MS/MS; enrichment against input, P < 0.05 and FC > 4; three biological replicates).

binding, binds:
SEUSS (SEU) (from UniProt Q8W234 1-877)
APETALA1 (AP1), from FIS inflorescences (from UniProt P35631 1-256)
HAC5 (from UniProt Q9LE42 1-1670) (enzyme)
…3 (SEP3), endogenous (from UniProt O22456 1-251)

Molecular target: T1, LEUNIG_HOMOLOG (LUH)-GFP (Arabidopsis thaliana)
Assay: as above
Remark: another data set of the same source

binding, binds:
B1
B2
B3
B4
B5
